Reference: article PMC11661308
These are yes or no findings as the source states them, for the method shown. Binding seen in cells or lysates may run through a third protein. Some binding calls cover weakened binding; strength is not graded here.

By UniProt entry, the sequences of proteins in these tests, tags left out.
UniProt P49407: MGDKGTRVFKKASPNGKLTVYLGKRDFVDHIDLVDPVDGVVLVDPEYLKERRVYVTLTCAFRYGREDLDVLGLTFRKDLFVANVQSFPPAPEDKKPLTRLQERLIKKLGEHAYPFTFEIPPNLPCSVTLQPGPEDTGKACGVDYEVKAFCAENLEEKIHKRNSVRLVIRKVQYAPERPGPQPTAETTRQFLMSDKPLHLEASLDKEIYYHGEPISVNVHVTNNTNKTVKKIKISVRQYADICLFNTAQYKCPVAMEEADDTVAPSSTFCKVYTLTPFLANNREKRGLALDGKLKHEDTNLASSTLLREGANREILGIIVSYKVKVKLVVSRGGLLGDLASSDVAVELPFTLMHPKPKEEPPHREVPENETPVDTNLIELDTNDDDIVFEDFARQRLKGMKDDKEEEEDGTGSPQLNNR

Biological target: Rluc8-tagged human neurotensin receptor 1 (NTSR1) (human) (UniProt P30989)
Assay: FRET or BRET; BRET1 in live HEK293T cells: Rluc8-tagged NTSR1 (donor) and Venus-tagged β-arrestin1 or 2 (acceptor); cells treated with NT, PD149163 or SBI-553 (also SR142948A; NT after SBI-553 or SR142948A pretreatment); HBSS with 20 mM HEPES, read at 35°C

binding	Substance
binds	human mVenus-β-arrestin1 (from UniProt P49407 1-418)
binds	human mVenus-β-arrestin2 (from UniProt P32121 1-409)
